Drawing on ChEMBL document CHEMBL1157454, “Citral derived amides as potent bacterial NorA efflux pump inhibitors” (2008), this text covers MIC for one compound.

This test concerns Staphylococcus aureus. Description: microbe, parasite or virus in culture. Conditions: 1199B, 18 h.

Each structure is given as a SMILES string. ≈ marks a conversion by molar mass, not a printed value.

In turn, `O=C(O)c1cn(C2CC2)c2cc(N3CCNCC3)c(F)cc2c1=O` [CIPROFLOXACIN] yielded an MIC of 8 µg/mL (≈ 24.1 µM).
